Results are given in words; binding and its absence hold for the method and conditions named. Binding seen in cells or lysates may run through a third protein. A yes stands for co-enrichment or nearness to the bait. Other partners may have been found. For some assays here: No binding means not detected with the bait.

Chains of the proteins cited; added tags and fusions are not shown.
UniProt Q9Y6K9: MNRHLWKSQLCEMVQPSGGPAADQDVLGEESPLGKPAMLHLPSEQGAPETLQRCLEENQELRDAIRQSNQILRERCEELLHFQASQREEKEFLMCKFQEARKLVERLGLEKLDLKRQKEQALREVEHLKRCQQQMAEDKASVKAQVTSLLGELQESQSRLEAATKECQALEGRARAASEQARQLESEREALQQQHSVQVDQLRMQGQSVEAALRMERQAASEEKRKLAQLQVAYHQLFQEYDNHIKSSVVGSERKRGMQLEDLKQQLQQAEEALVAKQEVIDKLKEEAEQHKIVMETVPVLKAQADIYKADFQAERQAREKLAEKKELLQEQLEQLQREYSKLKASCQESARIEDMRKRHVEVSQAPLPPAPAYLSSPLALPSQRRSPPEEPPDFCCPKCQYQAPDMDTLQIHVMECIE

What all share (assay): affinity purification with mass spectrometry; A549 lysate (M-PER), 400 uL with 2 ug agarose-conjugated mouse anti-IKKα or rabbit anti-NEMO antibody, 1 h at room temperature, five PBS washes; SDS-PAGE, in-gel trypsin, LC-MS/MS; scored (FC-A, FC-B, SAINT) against agarose-conjugated isotype IgG and CRAPome controls; resting cells
Test [1] addresses T1, IKKα (human (endogenous in A549)) (UniProt O15111).
T1 sequence: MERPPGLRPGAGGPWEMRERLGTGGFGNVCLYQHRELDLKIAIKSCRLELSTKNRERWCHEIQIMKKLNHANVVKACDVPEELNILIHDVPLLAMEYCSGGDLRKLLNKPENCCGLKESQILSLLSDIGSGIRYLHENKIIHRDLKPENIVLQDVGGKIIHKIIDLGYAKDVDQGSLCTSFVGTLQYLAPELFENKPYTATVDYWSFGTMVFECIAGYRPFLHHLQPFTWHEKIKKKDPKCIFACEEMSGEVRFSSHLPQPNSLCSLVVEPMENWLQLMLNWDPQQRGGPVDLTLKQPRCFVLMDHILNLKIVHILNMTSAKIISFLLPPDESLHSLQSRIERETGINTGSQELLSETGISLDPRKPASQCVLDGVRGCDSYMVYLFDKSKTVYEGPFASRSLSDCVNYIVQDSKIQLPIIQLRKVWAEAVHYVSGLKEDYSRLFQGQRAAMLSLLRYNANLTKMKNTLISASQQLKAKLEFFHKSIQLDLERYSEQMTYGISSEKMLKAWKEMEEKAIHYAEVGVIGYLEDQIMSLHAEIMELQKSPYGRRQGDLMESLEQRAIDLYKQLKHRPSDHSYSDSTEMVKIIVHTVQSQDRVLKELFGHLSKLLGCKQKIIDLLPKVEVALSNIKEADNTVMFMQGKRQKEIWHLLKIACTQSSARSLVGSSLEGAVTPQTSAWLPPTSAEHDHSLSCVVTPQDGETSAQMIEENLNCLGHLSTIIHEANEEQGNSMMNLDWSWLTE

Test [2] concerns the target NEMO (NF-kB essential modulator) (human (endogenous in A549)), Q9Y6K9. The conditions noted are these: remark: other sources report otherwise.
Test [3] concerns the target T2, IKKα (human (endogenous in A549)), O15111.
T2 chain: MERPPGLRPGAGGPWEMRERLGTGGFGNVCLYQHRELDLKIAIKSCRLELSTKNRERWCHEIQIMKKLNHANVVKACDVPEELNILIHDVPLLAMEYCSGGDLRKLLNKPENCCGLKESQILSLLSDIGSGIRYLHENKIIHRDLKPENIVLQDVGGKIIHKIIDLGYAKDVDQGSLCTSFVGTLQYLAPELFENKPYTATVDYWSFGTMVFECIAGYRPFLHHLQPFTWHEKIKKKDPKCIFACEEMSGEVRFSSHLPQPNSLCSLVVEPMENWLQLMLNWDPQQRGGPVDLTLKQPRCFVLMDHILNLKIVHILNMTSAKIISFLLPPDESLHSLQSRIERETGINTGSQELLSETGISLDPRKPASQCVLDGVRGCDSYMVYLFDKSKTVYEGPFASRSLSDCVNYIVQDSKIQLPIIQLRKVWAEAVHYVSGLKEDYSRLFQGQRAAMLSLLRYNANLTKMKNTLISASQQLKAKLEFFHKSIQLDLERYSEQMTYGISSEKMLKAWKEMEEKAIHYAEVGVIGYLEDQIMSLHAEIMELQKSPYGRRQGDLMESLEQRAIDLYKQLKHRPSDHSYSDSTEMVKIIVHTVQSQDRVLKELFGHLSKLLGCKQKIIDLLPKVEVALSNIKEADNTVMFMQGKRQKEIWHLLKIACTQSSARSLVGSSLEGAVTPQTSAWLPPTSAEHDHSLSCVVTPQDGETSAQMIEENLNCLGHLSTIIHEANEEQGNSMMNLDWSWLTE
The conditions noted are these: remark: other sources report otherwise.

The target of test [4] is NEMO (NF-kB essential modulator) (human (endogenous in A549)) (UniProt Q9Y6K9).

B1: MYO1E (protein, UniProt Q12965 1-1108)
chain: MGSKGVYQYHWQSHNVKHSGVDDMVLLSKITENSIVENLKKRYMDDYIFTYIGSVLISVNPFKQMPYFGEKEIEMYQGAAQYENPPHIYALADNMYRNMIIDRENQCVIISGESGAGKTVAAKYIMSYISRVSGGGTKVQHVKDIILQSNPLLEAFGNAKTVRNNNSSRFGKYFEIQFSPGGEPDGGKISNFLLEKSRVVMRNPGERSFHIFYQLIEGASAEQKHSLGITSMDYYYYLSLSGSYKVDDIDDRREFQETLHAMNVIGIFAEEQTLVLQIVAGILHLGNISFKEVGNYAAVESEEFLAFPAYLLGINQDRLKEKLTSRQMDSKWGGKSESIHVTLNVEQACYTRDALAKALHARVFDFLVDSINKAMEKDHEEYNIGVLDIYGFEIFQKNGFEQFCINFVNEKLQQIFIELTLKAEQEEYVQEGIRWTPIEYFNNKIVCDLIENKVNPPGIMSILDDVCATMHAVGEGADQTLLQKLQMQIGSHEHFNSWNQGFIIHHYAGKVSYDMDGFCERNRDVLFMDLIELMQSSELPFIKSLFPENLQADKKGRPTTAGSKIKKQANDLVSTLMKCTPHYIRCIKPNETKKPRDWEESRVKHQVEYLGLKENIRVRRAGYAYRRIFQKFLQRYAILTKATWPSWQGEEKQGVLHLLQSVNMDSDQFQLGRSKVFIKAPESLFLLEEMRERKYDGYARVIQKSWRKFVARKKYVQMREEASDLLLNKKERRRNSINRNFIGDYIGMEEHPELQQFVGKREKIDFADTVTKYDRRFKGVKRDLLLTPKCLYLIGREKVKQGPDKGLVKEVLKRKIEIERILSVSLSTMQDDIFILHEQEYDSLLESVFKTEFLSLLAKRYEEKTQKQLPLKFSNTLELKLKKENWGPWSAGGSRQVQFHQGFGDLAVLKPSNKVLQVSIGPGLPKNSRPTRRNTTQNTGYSSGTQNANYPVRAAPPPPGYHQNGVIRNQYVPYPHAPGSQRSNQKSLYTSMARPPLPRQQSTSSDRVSQTPESLDFLKVPDQGAAGVRRQTTSRPPPAGGRPKPQPKPKPQVPQCKALYAYDAQDTDELSFNANDIIDIIKEDPSGWWTGRLRGKQGLFPNNYVTKI
Take B1: the binding result in test [1] was “binds”.

B2: IKKα, O15111 1-745 (protein)
chain: MERPPGLRPGAGGPWEMRERLGTGGFGNVCLYQHRELDLKIAIKSCRLELSTKNRERWCHEIQIMKKLNHANVVKACDVPEELNILIHDVPLLAMEYCSGGDLRKLLNKPENCCGLKESQILSLLSDIGSGIRYLHENKIIHRDLKPENIVLQDVGGKIIHKIIDLGYAKDVDQGSLCTSFVGTLQYLAPELFENKPYTATVDYWSFGTMVFECIAGYRPFLHHLQPFTWHEKIKKKDPKCIFACEEMSGEVRFSSHLPQPNSLCSLVVEPMENWLQLMLNWDPQQRGGPVDLTLKQPRCFVLMDHILNLKIVHILNMTSAKIISFLLPPDESLHSLQSRIERETGINTGSQELLSETGISLDPRKPASQCVLDGVRGCDSYMVYLFDKSKTVYEGPFASRSLSDCVNYIVQDSKIQLPIIQLRKVWAEAVHYVSGLKEDYSRLFQGQRAAMLSLLRYNANLTKMKNTLISASQQLKAKLEFFHKSIQLDLERYSEQMTYGISSEKMLKAWKEMEEKAIHYAEVGVIGYLEDQIMSLHAEIMELQKSPYGRRQGDLMESLEQRAIDLYKQLKHRPSDHSYSDSTEMVKIIVHTVQSQDRVLKELFGHLSKLLGCKQKIIDLLPKVEVALSNIKEADNTVMFMQGKRQKEIWHLLKIACTQSSARSLVGSSLEGAVTPQTSAWLPPTSAEHDHSLSCVVTPQDGETSAQMIEENLNCLGHLSTIIHEANEEQGNSMMNLDWSWLTE
As for B2, in test [2], the binding entry is “binds”.

B3: Cdc37, Q16543 1-378 (protein)
chain: MVDYSVWDHIEVSDDEDETHPNIDTASLFRWRHQARVERMEQFQKEKEELDRGCRECKRKVAECQRKLKELEVAEGGKAELERLQAEAQQLRKEERSWEQKLEEMRKKEKSMPWNVDTLSKDGFSKSMVNTKPEKTEEDSEEVREQKHKTFVEKYEKQIKHFGMLRRWDDSQKYLSDNVHLVCEETANYLVIWCIDLEVEEKCALMEQVAHQTIVMQFILELAKSLKVDPRACFRQFFTKIKTADRQYMEGFNDELEAFKERVRGRAKLRIEKAMKEYEEEERKKRLGPGGLDPVEVYESLPEELQKCFDVKDVQMLQDAISKMDPTDAKYHMQRCIDSGLWVPNSKASEAKEGEEAGPGDPLLEAVPKTGDEKDVSV
For B3, the binding result in test [3] is recorded as “no binding”.

B4: Cdc37 (protein, UniProt Q16543 1-378)
chain: MVDYSVWDHIEVSDDEDETHPNIDTASLFRWRHQARVERMEQFQKEKEELDRGCRECKRKVAECQRKLKELEVAEGGKAELERLQAEAQQLRKEERSWEQKLEEMRKKEKSMPWNVDTLSKDGFSKSMVNTKPEKTEEDSEEVREQKHKTFVEKYEKQIKHFGMLRRWDDSQKYLSDNVHLVCEETANYLVIWCIDLEVEEKCALMEQVAHQTIVMQFILELAKSLKVDPRACFRQFFTKIKTADRQYMEGFNDELEAFKERVRGRAKLRIEKAMKEYEEEERKKRLGPGGLDPVEVYESLPEELQKCFDVKDVQMLQDAISKMDPTDAKYHMQRCIDSGLWVPNSKASEAKEGEEAGPGDPLLEAVPKTGDEKDVSV
On to B4, for which, in test [4], the binding result was “no binding”.

B5: TMED10 (protein, UniProt P49755 32-219)
chain: ISFHLPINSRKCLREEIHKDLLVTGAYEISDQSGGAGGLRSHLKITDSAGHILYSKEDATKGKFAFTTEDYDMFEVCFESKGTGRIPDQLVILDMKHGVEAKNYEEIAKVEKLKPLEVELRRLEDLSESIVNDFAYMKKREEEMRDTNESTNTRVLYFSIFSMFCLIGLATWQVFYLRRFFKAKKLIE
Take B5: the binding result in test [1] is on record as “binds”.

B6: DAZAP1 (protein, UniProt Q96EP5 1-407)
chain: MNNSGADEIGKLFVGGLDWSTTQETLRSYFSQYGEVVDCVIMKDKTTNQSRGFGFVKFKDPNCVGTVLASRPHTLDGRNIDPKPCTPRGMQPERTRPKEGWQKGPRSDNSKSNKIFVGGIPHNCGETELREYFKKFGVVTEVVMIYDAEKQRPRGFGFITFEDEQSVDQAVNMHFHDIMGKKVEVKRAEPRDSKSQAPGQPGASQWGSRVVPNAANGWAGQPPPTWQQGYGPQGMWVPAGQAIGGYGPPPAGRGAPPPPPPFTSYIVSTPPGGFPPPQGFPQGYGAPPQFSFGYGPPPPPPDQFAPPGVPPPPATPGAAPLAFPPPPSQAAPDMSKPPTAQPDFPYGQYAGYGQDLSGFGQGFSDPSQQPPSYGGPSVPGSGGPPAGGSGFGRGQNHNVQGFHPYRR
In the case of B6, in test [1], the binding entry is “binds”.

B7: HNRH3_HUMAN (protein, UniProt P31942 1-346)
chain: MDWVMKHNGPNDASDGTVRLRGLPFGCSKEEIVQFFQGLEIVPNGITLTMDYQGRSTGEAFVQFASKEIAENALGKHKERIGHRYIEIFRSSRSEIKGFYDPPRRLLGQRPGPYDRPIGGRGGYYGAGRGSMYDRMRRGGDGYDGGYGGFDDYGGYNNYGYGNDGFDDRMRDGRGMGGHGYGGAGDASSGFHGGHFVHMRGLPFRATENDIANFFSPLNPIRVHIDIGADGRATGEADVEFVTHEDAVAAMSKDKNNMQHRYIELFLNSTPGGGSGMGGSGMGGYGRDGMDNQGGYGSVGRMGMGNNYSGGYGTPDGLGGYGRGGGGSGGYYGQGGMSGGGWRGMY
On to B7, for which, in test [4], the binding entry is on record as “binds”.

B8: RBM14 (protein, UniProt Q96PK6 1-669)
chain: MKIFVGNVDGADTTPEELAALFAPYGTVMSCAVMKQFAFVHMRENAGALRAIEALHGHELRPGRALVVEMSRPRPLNTWKIFVGNVSAACTSQELRSLFERRGRVIECDVVKDYAFVHMEKEADAKAAIAQLNGKEVKGKRINVELSTKGQKKGPGLAVQSGDKTKKPGAGDTAFPGTGGFSATFDYQQAFGNSTGGFDGQARQPTPPFFGRDRSPLRRSPPRASYVAPLTAQPATYRAQPSVSLGAAYRAQPSASLGVGYRTQPMTAQAASYRAQPSVSLGAPYRGQLASPSSQSAAASSLGPYGGAQPSASALSSYGGQAAAASSLNSYGAQGSSLASYGNQPSSYGAQAASSYGVRAAASSYNTQGAASSLGSYGAQAASYGAQSAASSLAYGAQAASYNAQPSASYNAQSAPYAAQQAASYSSQPAAYVAQPATAAAYASQPAAYAAQATTPMAGSYGAQPVVQTQLNSYGAQASMGLSGSYGAQSAAAATGSYGAAAAYGAQPSATLAAPYRTQSSASLAASYAAQQHPQAAASYRGQPGNAYDGAGQPSAAYLSMSQGAVANANSTPPPYERTRLSPPRASYDDPYKKAVAMSKRYGSDRRLAELSDYRRLSESQLSFRRSPTKSSLDYRRLPDAHSDYARYSGSYNDYLRAAQMHSGYQRRM
As to B8, the binding entry in test [4] is on record as “binds”.

Values taken from paper PMC4187570.
